Reference: US20250019350A1, “SYNTHESIS OF THE PROSTATE SPECIFIC MEMBRANE ANTIGEN (PSMA) RADIOLABELED INHIBITOR [18F]DCFPYL” (Progenics Pharmaceuticals, Inc, priority 2023, published 2025)
The source gives many values for each of these; only a part stands here.

Test: Radiolysis / stability of [18F]DCFPyL over time by HPLC with radiodetection (RCP, free 18F, radioactive impurities)
Format: physicochemical
Experimental: Those of ordinary skill in the art will be aware of techniques and systems for determining the radiochemical purity of a composition. In some cases, the radiochemical purity is determined using an HPLC associated with a radio-detector. Generally, the radiochemical purity is determined under ambient conditions (e.g., ambient temperature, ambient humidity, ambient light, etc.), such as in samples stored under such conditions.
Stability was assessed using reverse phase HPLC on a C18 column with a phosphate buffer/acetonitrile gradient mobile phase, and the elution profile was monitored using both UV and radiochemical detectors. Samples were analyzed either by direct injection onto the HPLC, dilution and injection or including the addition of tetraethylammonium fluoride (TEAF) into the sample before injection.
Known amounts of free ^18F either alone or spiked with TEAF were injected onto the analytic column and the eluent from the column collected over the course of a chromatogram and assaying the radioactivity using a Capintec. […] Adding TEAF into the analytic samples was incorporated into subsequent studies examining potential radiolysis of [^18F]DCFPyL to overcome some of the limitations of free ^18F quantification.
Analytical HPLC method was used. The method employs UV detection at 264 nm for chemical impurities, and an Eckert & Ziegler model B-FC-1000 gamma detector for radiochemical assays.

In the case of `O=C(O)CC[C@H](NC(=O)N[C@@H](CCCCNC(=O)c1ccc([18F])nc1)C(=O)O)C(=O)O` [Lot 18F-DCFPyL, 2-(3-{1-carboxy-5-[(6-[18F]fluoro-pyridine-3-carbonyl)-amino]-pentyl}ureido)-pentanedioic acid], the “18F-DCFPyL (% RCP)” value (T = 0, 1 mg/mL sodium ascorbate, 20% ethanol, 111.5 mCi/mL at EOS) is reported as 99.43%, the “18F-DCFPyL (% RCP)” value (T = 0, 20 mg/mL sodium citrate, 20% ethanol, 104.8 mCi/mL at EOS) is reported as 89.78% and the “18F-DCFPyL (% RCP)” value (T = 0.5, 5 mg/mL sodium ascorbate, 20% ethanol, 114.6 mCi/mL at EOS) is reported as 99.61%. The “18F-DCFPyL (% RCP)” value (T = 2 hr, 1 mg/mL sodium ascorbate, 20% ethanol, 111.5 mCi/mL at EOS) was 98.11%, the “18F-DCFPyL (% RCP)” value (T = 2 hr, 5 mg/mL sodium ascorbate, 20% ethanol, 114.6 mCi/mL at EOS) was 99.11% and the “18F-DCFPyL (% RCP)” value (T = 2 hr, 20 mg/mL sodium citrate, 20% ethanol, 104.8 mCi/mL at EOS) was 81.14%. The “18F-DCFPyL (% RCP)” value (T = 4 hr, 1 mg/mL sodium ascorbate, 20% ethanol, 111.5 mCi/mL at EOS) was 97.39%, the “18F-DCFPyL (% RCP)” value (T = 4 hr, 5 mg/mL sodium ascorbate, 20% ethanol, 114.6 mCi/mL at EOS) was 98.77% and the “18F-DCFPyL (% RCP)” value (T = 4 hr, 20 mg/mL sodium citrate, 20% ethanol, 104.8 mCi/mL at EOS) was 78.68%. For the same compound, the “18F-DCFPyL (% RCP)” value (T = 6 hr, 0.5 mg/mL ascorbic acid pH 5.8, 20% ethanol, 105.8 mCi/mL at EOS) was 98.56%, the “18F-DCFPyL (% RCP)” value (T = 6 hr, 1 mg/mL sodium ascorbate, 20% ethanol, 111.5 mCi/mL at EOS) was 97.19% and the “18F-DCFPyL (% RCP)” value (T = 6 hr, 5 mg/mL sodium ascorbate, 20% ethanol, 114.6 mCi/mL at EOS) was 98.55%. The “18F-DCFPyL (% RCP)” value (T = 10 hr, 0.5 mg/mL ascorbic acid pH 5.8, 20% ethanol, 105.8 mCi/mL at EOS) was 98.58%, the “18F-DCFPyL (% RCP)” value (T = 10 hr, 1 mg/mL sodium ascorbate, 20% ethanol, 111.5 mCi/mL at EOS) was 97.26% and the “18F-DCFPyL (% RCP)” value (T = 10 hr, 5 mg/mL sodium ascorbate, 20% ethanol, 114.6 mCi/mL at EOS) was 98.49%.
